Consider 1 molecule from US20100104579A1.

The assay concerns the target human TREX1, wild type (recombinant, expressed in E. coli) (human) (UniProt Q9NSU2). Kind of assay: recombinant expression in E. coli; homodimer purified by amylose affinity, protease cleavage and phosphocellulose chromatography.

These are yes or no findings as the source states them, for the method shown. Some results given as binding are weak or reduced against the parent protein; the word gives no strength.

B1: human TREX1, wild type (recombinant, expressed in E. coli) (enzyme)
chain: MGSQALPPGPMQTLIFFDMEATGLPFSQPKVTELCLLAVHRCALESPPTSQGPPPTVPPPPRVVDKLSLCVAPGKACSPAASEITGLSTAVLAAHGRQCFDDNLANLLLAFLRRQPQPWCLVAHNGDRYDFPLLQAELAMLGLTSALDGAFCVDSITALKALERASSPSEHGPRKSYSLGSIYTRLYGQSPPDSHTAEGDVLALLSICQWRPQALLRWVDAHARPFGTIRPMYGVTASARTK
B1: the binding entry was “binds”.
